Results as given in patent US20100310646A1 (AARHUS UNIVERSITET, published 2010).
No constants are given. Whether binding was seen depends on the method and setting. For some assays here: Binding can be weak; no strength is given.

Assays:
[1] = target: PAPP-A(dLNR3-C), mutant of human PAPP-A truncated on the N-terminal side of LNR3 (human); experiment: ELISA
PAPP-A(P2-CCP2-C) = experiment: ELISA, chimera captured with polyclonal PAPP-A antibodies
PAPP-A(P2-CCP4-C) = experiment: as above
PAPP-A(P2-LNR3) = experiment: as above
PAPP-A(P2-CCP3-C) = experiment: as above
PAPP-A(P2-CCP3-4) = experiment: as above
PAPP-A(P2-CCP1-C) = experiment: as above
PAPP-A(P2-CCP5-C) = experiment: as above

B1: PAC1 (PAPP-A exosite antibody, scFv) (scFv)
scFv: EVQLLESGGGLVQPGGSLRLSCAASGFTFSSYAMSWVRQAPGKGLEWVSVITDMGRTTRYADSVKGRFTISRDNSKNTLYLQMNSLRAEDTAVYYCAKGLRQFDYWGQGTLVTVSSGGGGSGGGGSGGGGSTDIQMTQSPSSLSASVGDRVTITCRASQSISSYLNWYQQKPGKAPKLLIYHASQLQSGVPSRFSGSGSGTDFTLTISSLQPEDFATYYCQQYGGNPTTFGQGTKVEIKRAAAHHHHHHGAAEQKLISEEDLNGAA
notes: Selected from the Tomlinson I+J phage libraries and produced in E. coli HB2151; Purified scFv was used in SPR and cleavage assays; also called scFv PAC1; antibody PAC1
Question: What does the source list for B1?
Answer: binding [1]: no binding; binding (PAPP-A(P2-CCP2-C)): no binding; binding (PAPP-A(P2-CCP4-C)): no binding; binding (PAPP-A(P2-LNR3)): no binding; binding (PAPP-A(P2-CCP3-C)): no binding; binding (PAPP-A(P2-CCP3-4)): binds; binding (PAPP-A(P2-CCP1-C)): no binding; binding (PAPP-A(P2-CCP5-C)): no binding
